From PubChem BioAssay AID493014 (National Center for Advancing Translational Sciences (NCATS), 2011)
In all, about 340,000 compounds went through this assay and about 170 (0.05%) were called active. The inconclusive results got no clear call from the source; some entries with a clear call stand among them for comparison. Calls follow the shape of the dose curve; as a rule, active = well fitted inhibition curve with a large enough effect in the signal ratio, with a control signal flat (not every such curve was filed as active); inconclusive = small, poorly fitted or top-dose-only effect, or effect the other way, or a change in a side signal; inactive = flat fitted curve, though single readings scatter; the % refers to the signal ratio. Potencies of inconclusive entries are doubtful fits and often do not repeat.

Assay: qHTS Assay to Find Inhibitors of Chronic Active B-Cell Receptor Signaling;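 as to activity change, negative = inhibition: plate controls were basal doxycycline-induced cells for no effect and cells given 10 µM MG132 for full effect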
Conditions: ABC-DLBCL IkBa-CBG/CBR reporter, luminescence ratio (green luciferase fused to IkBa over red control in TMD8 lymphoma cells), 4 h; activity change, negative = inhibition: at 46.1 µM (top of the series)
In short: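 TMD8 ABC-DLBCL cells carrying doxycycline-inducible green luciferase fused to IkappaBalpha plus unfused red luciferase were exposed to compounds (up to 46 uM) for 4 hrs at 37C. Activity came from the overlap-corrected green/red luminescence ratio.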
Potency is read from the fitted curve at half-maximal effect.

Compound | Potency | activity change, negative = inhibition
O=C(/C=C/c1ccccc1Cl)Nc1ccc(S(=O)(=O)Nc2ncccn2)cc1 | inconclusive: 8.91 µM [falling, partial curve] | 
COc1ccc(-c2cc(C(=O)N3CCN(C(c4ccccc4)c4ccccc4)CC3)no2)cc1OC |  | inconclusive: -12.6%
O=C(Nc1cccc(C(=O)Nc2ccc(Cl)cn2)c1)c1ccccc1 | inconclusive: 14.1 µM [falling, partial curve, poor fit] | 
O=C(CN1CCN(C(C(=O)Nc2ccc(F)cc2)c2ccccc2)CC1)NC1CC1 (configuration not stated) |  | inconclusive: 1.68%
O=C(Nc1ccccc1F)c1ccc(Cn2cc(Br)cn2)cc1 |  | inconclusive: -2.06%
Cc1cc(Br)ccc1SCC(=O)NCC(c1ccco1)N1CCCCC1 (configuration not stated) |  | inconclusive: -0.406%
CC(=O)Oc1cccc(C(=O)Nc2cccc(C(=O)Nc3ccccc3C(=O)O)c2)c1 |  | inconclusive: -10.7%
Cc1cc(Nc2ccccc2)nn1C(=O)c1ccc(Cl)cc1 |  | inconclusive: 8.6%
Clc1cccc(CN2CCN(Cc3nc(CCc4ccccc4)no3)CC2)c1 |  | inactive
O=C(O/N=C/c1ccc2c(c1)OCO2)c1ccccc1Cl | inconclusive: 35.5 µM [falling, single point] | 
COc1cccc(-c2cc(C(=O)NCC3CCCO3)on2)c1 (configuration not stated) | inconclusive: 15.8 µM [falling, single point] | 
Cc1cc2cc(CN(Cc3cccs3)Cc3nnnn3CC3CCCO3)c(=O)[nH]c2cc1C (configuration not stated) | inconclusive: 5.8 µM [falling, single point] | 
Brc1ccccc1OCCOc1cccc2cccnc12 |  | inconclusive: -1.39%
COc1ccc(OC)c(C(c2nnnn2CC2CCCO2)N2CCN(C)CC2)c1 (configuration not stated) |  | inconclusive: 5.31%
O=C(O)c1ccc(-c2ccco2)n1Cc1ccccc1 |  | inconclusive: 9.08%
OC(CN1C2=NCCN2c2ccccc21)c1ccc2c(c1)OCO2 (configuration not stated) | inconclusive: 15.8 µM [falling, partial curve, poor fit] | 
Cc1ccc(S(=O)(=O)c2cccc(S(=O)(=O)N3CCCC3)c2)cc1S(=O)(=O)N1CCCC1 |  | inactive
Cn1nc(C(=O)NNC(=O)COc2ccccc2)c2ccccc2c1=O |  | inactive
c1ccc(CCc2ccccc2-c2nc(-c3ccccn3)no2)cc1 |  | inconclusive: 17.6%
O=C(Cc1ccccc1)Nc1ccccc1N1CCCC1 |  | inconclusive: 6.84%
COC(=O)[C@H](CC(C)C)NC(=O)NCc1ccc(Cl)cc1 |  | inactive
CCOc1cc(N2CCOCC2)c(OCC)cc1NC(=O)c1nc2nc(C)cc(C)n2n1 |  | inactive
NC(=O)CSc1cn(Cc2cccc(F)c2)c2ccccc12 |  | inactive
CCC(CC)NC(=O)Nc1ccccc1C(F)(F)F |  | inconclusive: 1.57%
O=C(NCCSc1ccccc1)c1ccc(Br)cc1 |  | inconclusive: -16.2%
COc1cc(CC(=O)OCC(=O)c2ccc3c(c2)OCCO3)cc(OC)c1OC | inconclusive: 1.64 µM [falling, full curve, poor fit] | 

Compound | Potency | activity change, negative = inhibition
CCn1cc([N+](=O)[O-])c(C(=O)N2N=C(c3ccc(Cl)c(Cl)c3)CC2c2ccccc2O)n1 (configuration not stated) | inconclusive: 25.1 µM [falling, partial curve] | 
Cc1ccc(-n2c(O)c(C=Nc3ccccc3-c3n[nH]c(=S)[nH]c3=O)c3ccccc3c2=O)cc1C |  | inconclusive: -0.0106%
O=C(NCc1cccs1)c1cc(-c2cccc(Cl)c2)on1 |  | inconclusive: -5.24%
Cc1noc(C)c1S(=O)(=O)N(C)C[C@H]1Oc2c(NC(=O)Nc3ccc(C(F)(F)F)cc3)cccc2C(=O)N([C@H](C)CO)C[C@@H]1C |  | inconclusive: -9.29%
O=C(Nc1nc2ccccc2[nH]1)c1cccc([N+](=O)[O-])c1 | inconclusive: 2 µM [falling, full curve, poor fit] | 
CCN(CC)S(=O)(=O)c1cccc(NC2=NCC(C)S2)c1 (configuration not stated) |  | inconclusive: 4.53%
C/C(=N\NC(=O)c1ccc(NS(=O)(=O)c2cccs2)cc1)c1ccc(C(C)(C)C)cc1 | inconclusive: 20.6 µM [falling, partial curve] | 
Cc1ccc(S(=O)(=O)N2CCOCC2)cc1NC(=O)COC(=O)c1ccc(Br)cc1 | inconclusive: 32.6 µM [falling, single point] | 
Cc1cc(C)cc(NC(=O)N2c3ccccc3NC(=O)CC2C)c1 (configuration not stated) | inconclusive: 25.1 µM [falling, single point] | 
COc1ccc(CCNC(=O)COC(=O)c2cc(OC)c(OC)cc2OC)cc1OC |  | inconclusive: -22.5%
CN(C)c1nc(SCC(=O)Nc2ccccc2)nc(N2CCOCC2)n1 |  | inactive
C/C(=N\NC(=O)COc1ccc(C(C)(C)C)cc1)c1ccc(OC(F)F)cc1 | inconclusive: 23.1 µM [rising, partial curve, poor fit] | 
CCOC(=O)c1sc(-c2cccc([N+](=O)[O-])c2)cc1N |  | inconclusive: 8.98%
COc1cc(OC)cc(-c2c(-c3cccs3)c3cc(-c4ccc(CN5CCOCC5)cc4)ccc3n2C)c1 |  | inconclusive: -17.4%
CCOC(=O)C(=O)C1=CN(Cc2ccccc2)C=C(C#N)C1 |  | inconclusive: -1.12%
CCOC(=O)Cc1csc(NC(=O)Nc2ccc(Cl)cc2)n1 | inconclusive: 10 µM [falling, partial curve] | 
C=CCn1c(SCC(=O)Nc2ccc(O)cc2)nc2sc(CC)cc2c1=O | inconclusive: 10 µM [falling, partial curve, poor fit] | 
COc1ccc(/C=N/OC/C(O)=C(\C#N)c2nc3ccccc3[nH]2)cc1 |  | inconclusive: -17.8%
COc1ccnc(Oc2ccccc2)c1C#N |  | inactive
COC(=O)C1=C(C)OC(N)=C(C#N)C1c1ccccc1F (configuration not stated) |  | inconclusive: -14.5%
Cc1ccc(-c2csc(N=C(N)N)n2)c(C)c1 | inconclusive: 35.5 µM [falling, partial curve, poor fit] | 
COc1ccc(-c2c(=O)n(OCc3nc4ccccc4[nH]3)c3ccccc3[n+]2[O-])cc1 | inconclusive: 10 µM [falling, partial curve, poor fit] | 
O=C(CNC(=O)c1ccccc1)OCc1nc2ccccc2s1 | inconclusive: 6.51 µM [rising, partial curve] | 
NS(=O)(=O)c1ccc(N=Nc2c(=O)[nH]n3c(=O)c4c([nH]c23)CCCC4)cc1 |  | inconclusive: -24.9%
Cc1ccc(C(=O)N/N=C/c2sc(=O)n(Cc3cccc(C(=O)O)c3)c2Cl)cc1 |  | inconclusive: 0.648%

One compound at a time, from the list above.
Cc1ccc(S(=O)(=O)N2CCOCC2)cc1NC(=O)COC(=O)c1ccc(Br)cc1 in the list: Potency: inconclusive: 32.6 µM [falling, single point]
O=C(NCc1cccs1)c1cc(-c2cccc(Cl)c2)on1 in the list: activity change, negative = inhibition: inconclusive: -5.24%
CN(C)c1nc(SCC(=O)Nc2ccccc2)nc(N2CCOCC2)n1 in the list: activity change, negative = inhibition: inactive

(cont.)

Compound | Potency | activity change, negative = inhibition
COC(=O)c1ccc(NC(=O)c2c(NCc3cccc(F)c3)sc3c2CCCC3)cc1 | inconclusive: 11.2 µM [falling, partial curve] | 
O=C(NC1CCCN(Cc2ccc(Cl)cc2)C1)C1CCC1 (configuration not stated) |  | inconclusive: 2.73%
N/C(Cc1cccs1)=N\OC(=O)COc1ccc(Cl)cc1Cl | inconclusive: 3.26 µM [rising, full curve, poor fit] | 
O=C1OC(/C=C/c2ccc(Cl)cc2)=NC/1=C/c1ccco1 |  | inactive
O=C(CSc1nnc(CNC(=O)c2ccccc2)o1)c1ccc(Cl)cc1 |  | inactive
COC(=O)c1ccccc1NC(=O)CN(C)S(=O)(=O)c1ccc(OC)c(C)c1 |  | inconclusive: 3.5%
O=C(Cn1c(=O)n(Cc2ccco2)c(=O)c2c3c(sc21)CCCCC3)c1ccccc1 |  | inactive
C=CCn1c(SCC(=O)N2CC(C)OC(C)C2)nnc1-c1ccncc1 (configuration not stated) |  | inconclusive: 8.06%
CC(=O)c1cccc(OCc2cc(C(=O)N(C)Cc3ccc(C)o3)no2)c1 | inconclusive: 35.5 µM [falling, partial curve, poor fit] | 
Cc1nc2c(C(=O)N3CCCCC3)cnn2c(C)c1Cc1ccccc1F |  | inactive
CC(C)OC(=O)CSc1nnc(-c2ccc(Cl)cc2Cl)o1 |  | inconclusive: 7.36%
Clc1ccc(Cc2nnc(-c3ccccc3Br)o2)cc1 |  | inconclusive: 2.68%
C/C(=N\NC(=O)c1ccccc1)c1ccc(N2CCCCC2)cc1 |  | inconclusive: -11.9%
COc1ccc(CCNC(=O)CSc2nc3ccccc3o2)cc1OC |  | inconclusive: 1.47%
COc1cc(C)c(C)cc1S(=O)(=O)N1CCCc2ccccc21 |  | inconclusive: 4.98%
COc1ccc(NC(=O)c2oc3ccc(S(=O)(=O)N4CCOCC4)cc3c2C)c(OC)c1 | inconclusive: 0.447 µM [falling, full curve, poor fit] | 
Cc1ccc(-c2csc(NC(=O)C3CC(=O)N(Cc4ccco4)C3)n2)cc1 (configuration not stated) |  | inconclusive: 0.0594%
C/C(=N\NC(=O)Cc1csc(N2CCOCC2)n1)c1ccc(Cl)c(Cl)c1 |  | inconclusive: 7.75%
Cc1ccc(-n2[nH]c(C)c(/C=N/n3c(C)nc4ccccc4c3=O)c2=O)cc1 |  | inconclusive: 6%
CCC(=O)N1c2ccccc2NC2=C(C(=O)CCC2)C1c1ccc(N(C)C)cc1 (configuration not stated) |  | inconclusive: 6.56%
COc1ccc2c(c1)O[C@H](c1ccc3c(c1)OCO3)[C@@H](OC(=O)N[C@H]1CCCc3ccccc31)C2=O |  | inactive
CCc1ccc(NC(=O)CSc2nc3nc(C)cc(C)n3n2)cc1 |  | inactive
Cc1ccc(S(=O)(=O)N2CCN(C(=O)Cc3sc(C)nc3-c3ccc(F)cc3)CC2)c(C)c1 |  | inconclusive: -6.79%
Cc1nc(C)c(-c2ccc(SCc3ccccc3C)nn2)s1 |  | inactive
COc1cc(/C=C/C(C)=O)cc(OC)c1OC | inconclusive: 0.164 µM [falling, full curve, poor fit] | 
